Results are given in words; binding and its absence hold for the method and conditions named. Binding seen in cells or lysates may run through a third protein. Some results given as binding are weak or reduced against the parent protein; the word gives no strength.
Molecular target: DEAD-box ATPase 10 (DDX10) (human (endogenous in SCC15)) (UniProt Q13206)
Assay: co-IP; endogenous proteins in SCC15 cell lysate; IP/Co-IP kit, protein A/G magnetic beads preincubated with the primary antibody, 4 °C; washed with lysis buffer, eluted in SDS loading buffer, detected by Western blot; which antibody precipitated is not stated

Sequences of proteins named here, by UniProt entry; tags and fusion partners are left off.
UniProt Q13206: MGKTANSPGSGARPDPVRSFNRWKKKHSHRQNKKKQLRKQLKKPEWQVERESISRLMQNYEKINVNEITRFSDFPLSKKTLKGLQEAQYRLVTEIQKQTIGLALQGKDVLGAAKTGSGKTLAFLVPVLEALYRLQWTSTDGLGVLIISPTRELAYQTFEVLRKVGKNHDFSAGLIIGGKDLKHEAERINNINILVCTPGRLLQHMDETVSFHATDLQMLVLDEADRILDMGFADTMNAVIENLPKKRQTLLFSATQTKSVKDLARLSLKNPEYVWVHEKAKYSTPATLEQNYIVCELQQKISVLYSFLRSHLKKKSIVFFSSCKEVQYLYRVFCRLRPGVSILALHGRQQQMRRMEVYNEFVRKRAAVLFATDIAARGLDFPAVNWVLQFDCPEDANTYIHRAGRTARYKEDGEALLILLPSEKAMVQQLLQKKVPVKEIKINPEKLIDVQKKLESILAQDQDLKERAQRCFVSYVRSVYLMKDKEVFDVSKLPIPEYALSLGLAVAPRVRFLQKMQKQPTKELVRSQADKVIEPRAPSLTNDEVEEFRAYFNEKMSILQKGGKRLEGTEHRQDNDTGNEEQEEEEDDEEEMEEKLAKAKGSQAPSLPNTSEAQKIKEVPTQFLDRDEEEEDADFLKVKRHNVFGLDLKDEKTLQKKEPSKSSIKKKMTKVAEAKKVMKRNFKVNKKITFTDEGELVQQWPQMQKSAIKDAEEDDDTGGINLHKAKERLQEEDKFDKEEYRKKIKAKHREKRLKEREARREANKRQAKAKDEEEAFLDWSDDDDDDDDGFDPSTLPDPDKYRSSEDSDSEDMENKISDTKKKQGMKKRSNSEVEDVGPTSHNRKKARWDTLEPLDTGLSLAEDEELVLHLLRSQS

- binding: binds
B1: Rab27b (protein, UniProt O00194 1-218)
chain: MTDGDYDYLIKLLALGDSGVGKTTFLYRYTDNKFNPKFITTVGIDFREKRVVYNAQGPNGSSGKAFKVHLQLWDTAGQERFRSLTTAFFRDAMGFLLMFDLTSQQSFLNVRNWMSQLQANAYCENPDIVLIGNKADLPDQREVNERQARELADKYGIPYFETSAATGQNVEKAVETLLDLIMKRMEQCVEKTQIPDTVNGGNSGNLDGEKPPEKKCIC

From article PMC12063704
